Among the data in PMC6614553 are binding values, retold here.

Amino acid sequences for entries named in this document (tags omitted).
UniProt O00487: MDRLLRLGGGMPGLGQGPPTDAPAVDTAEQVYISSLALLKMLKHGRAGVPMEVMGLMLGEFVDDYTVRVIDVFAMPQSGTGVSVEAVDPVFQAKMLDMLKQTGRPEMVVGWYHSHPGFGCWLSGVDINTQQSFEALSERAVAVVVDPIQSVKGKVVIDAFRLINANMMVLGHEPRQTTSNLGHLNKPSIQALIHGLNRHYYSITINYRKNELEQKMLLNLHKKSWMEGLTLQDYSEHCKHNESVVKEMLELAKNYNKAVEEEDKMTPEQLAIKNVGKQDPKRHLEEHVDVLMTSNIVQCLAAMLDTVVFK
UniProt P35998: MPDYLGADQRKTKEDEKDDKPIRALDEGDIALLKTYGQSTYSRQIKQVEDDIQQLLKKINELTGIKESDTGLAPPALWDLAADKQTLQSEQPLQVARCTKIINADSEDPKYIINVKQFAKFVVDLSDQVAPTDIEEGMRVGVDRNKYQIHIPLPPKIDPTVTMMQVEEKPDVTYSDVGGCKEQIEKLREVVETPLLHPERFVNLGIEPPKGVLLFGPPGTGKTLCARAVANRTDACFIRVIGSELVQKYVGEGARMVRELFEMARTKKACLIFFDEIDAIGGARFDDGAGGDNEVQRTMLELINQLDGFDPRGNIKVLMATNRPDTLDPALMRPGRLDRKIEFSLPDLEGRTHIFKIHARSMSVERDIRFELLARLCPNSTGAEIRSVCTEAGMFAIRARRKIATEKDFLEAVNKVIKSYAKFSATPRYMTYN

Results are given in words; binding and its absence hold for the method and conditions named. In cells and extracts the contact can be indirect. Some results given as binding are weak or reduced against the parent protein; the word gives no strength.

The target of the experiment is PSMD14 (Rpn11) containing a tag that facilitates affinity purification (UniProt O00487). The experiment in a line: pull-down; proteasomes affinity purified through the tag on PSMD14 (Rpn11) from cells exposed to hit compounds and from control cells; subunits detected by immunoblot. On the technique in general: A western blot detects proteins with antibodies after separation by electrophoresis.

Turning to PSMC2 (from UniProt P35998 1-433), the binding result is reported as “binds”.
